Measured values as given in patent EP4643657A1, “COMPOSITIONS CONTAINING SHORT-CHAIN FATTY ACID, METHODS OF USE, AND METHODS OF MAKING THEREOF” (Velocity Life Sciences, LLC, priority 2024, dated 2025).

Experiments:
[1] = Taste assessment, 200 mm anchored visual analog scale (Example 2); set-up: species or system human; conditions: 200 mg sample, 200 mm VAS; for Taste, Max / Taste, Mean / Taste, Median / Taste, Min: N=10 subjects; for Taste assessment: one subject, very bad (low) to very good (high)
[2] = Smell assessment, 200 mm anchored visual analog scale (Example 2); set-up: species or system human; conditions: 200 mg sample, 200 mm VAS; for Smell, Max / Smell, Mean / Smell, Median / Smell, Min: N=10 subjects; for Smell assessment: one subject, very bad (low) to very good (high)

Row | Structure (SMILES) | Taste, Max [1] | Taste, Mean [1] | Taste, Median [1] | Taste, Min [1] | Taste assessment ([1]; entry 1) | Taste assessment ([1]; entry 2) | Taste assessment ([1]; entry 3) | Taste assessment ([1]; entry 4) | Taste assessment ([1]; entry 5) | Taste assessment ([1]; entry 6) | Taste assessment ([1]; entry 7) | Taste assessment ([1]; entry 8) | Taste assessment ([1]; entry 9) | Taste assessment ([1]; entry 10) | Smell, Max [2] | Smell, Mean [2] | Smell, Median [2] | Smell, Min [2] | Smell assessment ([2]; entry 1) | Smell assessment ([2]; entry 2) | other results
1 | CCCC(=O)O [Butyric Acid, butanoic acid] | 2 | 0.70 | 0.50 | 0 | 2 | 1 | 1 | 0 | 0 | 0 | 2 | 1 | 0 | 0 | 3 | 0.80 | 0.00 | 0 | 1 | 2 | Smell assessment ([2]; entry 3): 0; Smell assessment ([2]; entry 4): 0; Smell assessment ([2]; entry 5): 0; Smell assessment ([2]; entry 6): 0; Smell assessment ([2]; entry 7): 3; Smell assessment ([2]; entry 8): 2; Smell assessment ([2]; entry 9): 0; Smell assessment ([2]; entry 10): 0
2 | CCCC(=O)O [L-Lysine Butyrate, L-lysine butyrate] | 108 | 101.50 | 101.00 | 93 | 100 | 102 | 103 | 100 | 107 | 102 | 100 | 93 | 100 | 108 | 115 | 105.10 | 102.5 | 98 | 115 | 109 | Smell assessment ([2]; entry 3): 98; Smell assessment ([2]; entry 4): 100; Smell assessment ([2]; entry 5): 114; Smell assessment ([2]; entry 6): 100; Smell assessment ([2]; entry 7): 102; Smell assessment ([2]; entry 8): 103; Smell assessment ([2]; entry 9): 101; Smell assessment ([2]; entry 10): 109
3 | CCCC(=O)[O-].[Na+] [Sodium Butyrate, Sodium butyrate] | 6 | 3.50 | 4.00 | 0 | 3 | 4 | 6 | 4 | 0 | 0 | 5 | 3 | 4 | 6 | 44 | 17.40 | 13.00 | 3 | 14 | 12 | Smell assessment ([2]; entry 3): 6; Smell assessment ([2]; entry 4): 21; Smell assessment ([2]; entry 5): 27; Smell assessment ([2]; entry 6): 4; Smell assessment ([2]; entry 7): 38; Smell assessment ([2]; entry 8): 44; Smell assessment ([2]; entry 9): 5; Smell assessment ([2]; entry 10): 3
4 | CCCC(=O)OCC(COC(=O)CCC)OC(=O)CCC [Tributyrin, propane-1,2,3-triyl tributanoate] | 5 | 3.30 | 3.00 | 2 | 5 | 3 | 3 | 4 | 4 | 3 | 2 | 3 | 3 | 3 | 5 | 3.00 | 3.00 | 2 | 3 | 3 | Smell assessment ([2]; entry 3): 2; Smell assessment ([2]; entry 4): 3; Smell assessment ([2]; entry 5): 3; Smell assessment ([2]; entry 6): 3; Smell assessment ([2]; entry 7): 4; Smell assessment ([2]; entry 8): 5; Smell assessment ([2]; entry 9): 2; Smell assessment ([2]; entry 10): 2
